Data source: PubChem BioAssay AID1259405 (NCATS, 2018)

- Assay: 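Knock-downs that lift recombinant protein yield in hamster ovary cells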 (primary screen)
- System: Chinese hamster CHO-K1 ovary cells with stable secreted eGFP expression
- Reagent: single siRNA against mouse genes, 0.8 pmol siRNA per well (2 µl of 400 nM stock)
- Duration: 3 days
- Measurement: 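Per-well intracellular GFP measured by laser scanning cytometry, plus viability from ATP luminescence, each relative to plate median of non-targeting control wells, in %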
- Scale: GFP, % of control: higher = more GFP per well, higher productivity; viability (ATP), % of control: higher = more viable cells (more ATP)
- Call rule: 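a knock-down is called active if GFP reaches 120% or more of non-targeting control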
Shown is a random part of about 50,000 deposited reagents. Over the whole deposit, about 4,000 (8%) are marked active. 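Mouse siRNA library applied to hamster cells; one well for each siRNA.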 Entries without a mark were called inactive. Reagents against one gene are numbered here.

| GFP, % of control | viability (ATP), % of control | gene | reagent no. |
| --- | --- | --- | --- |
| 89.1 | 55 | Smpdl3b | 1 |
| 70.1 | 87.2 | Smpdl3b | 2 |
| 107 | 87.4 | Smpdl3b | 3 |
| 43.3 | 67.1 | Fst | 1 |
| 80.2 | 63.3 | Fst | 2 |
| 91.1 | 54.1 | Fst | 3 |
| 49.5 | 52.4 | Lrrc61 | 1 |
| 85.1 | 70.3 | Lrrc61 | 2 |
| 96.4 | 83.7 | Lrrc61 | 3 |
| 80 | 115 | Matcap1 | 1 |
| 69.3 | 79.9 | Matcap1 | 2 |
| 92.8 | 88.6 | Matcap1 | 3 |
| 84.1 | 56.3 | Sync | 1 |
| 29.7 | 43.9 | Sync | 2 |
| 59.3 | 67.7 | Sync | 3 |
| 104 | 85.5 | Agfg2 | 1 |
| 99.5 | 72.4 | Agfg2 | 2 |
| 73.6 | 65.1 | Agfg2 | 3 |
| 91.2 | 121 | Catsper1 | 1 |
| 61 | 47.5 | Catsper1 | 2 |
| 33.5 | 93.6 | Rabep2 | 1 |
| 50.4 | 63 | Rabep2 | 2 |
| 74.6 | 82.1 | Smtnl1 | 1 |
| 79.1 | 90.1 | Smtnl1 | 2 |
| 43.8 | 34.1 | Smtnl1 | 3 |
| 90.1 | 66.5 | Mrpl3 | 1 |
| 132 (active) | 89.2 | Mrpl3 | 2 |
| 131 (active) | 66.9 | Mrpl3 | 3 |
| 81.9 | 80.2 | Ly6c1 | 1 |
| 66.7 | 68.3 | Ly6c1 | 2 |
| 85.1 | 68.1 | Ly6c1 | 3 |
| 132 (active) | 68.1 | Or5p5 | 1 |
| 58.7 | 40.8 | Or5p5 | 2 |
| 63.7 | 45.2 | Or5p5 | 3 |
| 34.1 | 87.5 | Gm57858 | 1 |
| 73.5 | 75 | Gm57858 | 2 |
| 121 (active) | 107 | Gm57858 | 3 |
| 69.5 | 84.2 | Cdk2ap2 | 1 |
| 90.1 | 72.3 | Cdk2ap2 | 2 |
| 38.7 | 24.9 | Cdk2ap2 | 3 |
| 55.8 | 64.8 | Cd2 | 1 |
| 117 | 68 | Cox6c | 1 |
| 78.5 | 72.5 | Cox6c | 2 |
| 57.3 | 53.6 | Tmem204 | 1 |
| 126 (active) | 103 | Tmem204 | 2 |
| 128 (active) | 150 | Tmem204 | 3 |
| 87.6 | 84.7 | Ift74 | 1 |
| 71.6 | 56.3 | Ift74 | 2 |
| 117 | 120 | Ift74 | 3 |
| 66.2 | 70 | Or1e23 | 1 |
| 44.2 | 55.6 | Or1e23 | 2 |
| 41.9 | 103 | Or1e23 | 3 |
| 58.7 | 58 | Txnl4b | 1 |
| 100 | 77.7 | Txnl4b | 2 |
| 69.4 | 98.8 | Txnl4b | 3 |
| 61.5 | 95.8 | Zfp697 | 1 |
| 104 | 88.1 | Zfp697 | 2 |
| 88 | 78 | Zfp934 | 1 |
| 85 | 45.3 | Zfp934 | 2 |
| 86.9 | 109 | Zfp934 | 3 |
| 49.9 | 41.5 | Or7d11 | 1 |
| 42.2 | 70.8 | Or7d11 | 2 |
| 100 | 101 | Or7d11 | 3 |
| 79.9 | 95.8 | Afg2a | 1 |
| 88 | 46.3 | Afg2a | 2 |
| 34.4 | 16.9 | Vmn1r236 | 1 |
| 110 | 109 | Vmn1r236 | 2 |
| 48.2 | 51.9 | Vmn1r236 | 3 |
| 91.9 | 89.2 | Adamts2 | 1 |
| 79.6 | 64.5 | Adamts2 | 2 |
| 64.7 | 60.4 | Adamts2 | 3 |
| 117 | 146 | Bola1 | 1 |
| 47.6 | 57.4 | Bola1 | 2 |
| 206 (active) | 154 | Bola1 | 3 |
| 72.5 | 70 | Or5k15 | 1 |
| 73 | 84.7 | Or5k15 | 2 |
| 36.9 | 103 | Or5k15 | 3 |
| 65.7 | 77.7 | Supt3 | 1 |
| 69.1 | 63.6 | Supt3 | 2 |
| 79.7 | 84.6 | Supt3 | 3 |
| 96.5 | 83.2 | Inava | 1 |
| 90.9 | 83.7 | Inava | 2 |
| 61.5 | 83.6 | Inava | 3 |
| 84.9 | 74.3 | Opn1sw | 1 |
| 44.7 | 64.3 | Opn1sw | 2 |
| 60.2 | 79.6 | Opn1sw | 3 |
